Data taken from PubChem BioAssay AID1053133, deposited by Broad Institute (2014).

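Plate-reader measure of the Venus reporter marking one vaccinia stage in infected cells (the cell line is not named here); read time unknown.
The test concentration is not given here.
Percent change in Venus reporter signal; lower (more negative) values mean stronger inhibition of that viral stage.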

Values are in %.
The controls that fix the scale are not given here.
Common to all entries: measured here: Venus reporter, other viral stage.
Part of the compounds only, not a random draw; the main read-out is not listed here.

CCC(=O)N1CCCCN2[C@H](C1)[C@@H](c1ccc(/C=C/c3ccccc3)cc1)[C@@H]2CO gave activity change (Venus) -36.8%. COc1ccc2c3c(n(C)c2c1)[C@H](CO)N(C(=O)C1CCCC1)CC31CCN(CC2CCCC2)CC1 read activity change (Venus) -29.97%. Result for COc1ccc2c3c(n(C)c2c1)[C@@H](CO)N(C(=O)Nc1cccc(F)c1)CC31CCN(Cc2nccs2)CC1 was activity change (Venus) -58.94%. C[C@@H]1CN([C@@H](C)CO)C(=O)c2cccc(NC(=O)Nc3ccc4c(c3)OCO4)c2O[C@@H]1CN(C)C(=O)NC1CCCCC1 gave activity change (Venus) -26.03%. Result for C[C@@H]1CCCCO[C@@H](CN(C)S(=O)(=O)c2ccc(Cl)cc2)[C@H](C)CN([C@H](C)CO)C(=O)c2cc(NC(=O)Cc3ccccc3)ccc2O1 was activity change (Venus) -37.08%. Result for CC(C)C#Cc1ccc2c(c1)O[C@H](CN(C)Cc1cccnc1)[C@H](C)CN([C@@H](C)CO)S2(=O)=O was activity change (Venus) -37.07%. C[C@@H]1CN([C@@H](C)CO)S(=O)(=O)c2ccc(/C=C/c3ccccc3)cc2O[C@H]1CN(C)C(=O)Nc1ccc(F)cc1 read activity change (Venus) -29.01%.

For C[C@@H]1CN([C@H](C)CO)C(=O)c2cc(NC(=O)Cc3ccccc3)ccc2O[C@@H](C)CCCCO[C@@H]1CN(C)Cc1ccccc1 the result was activity change (Venus) -40.76%. For COc1ccccc1-c1cnc2c(c1)C(=O)N([C@H](C)CO)C[C@H](C)[C@H](CN(C)Cc1ccc(F)cc1)O2 the result was activity change (Venus) -22.1%. With C[C@@H]1CN([C@H](C)CO)S(=O)(=O)c2ccc(C#Cc3ccc(F)cc3)cc2O[C@@H]1CN(C)C(=O)c1ccccn1 the assay gave activity change (Venus) -27.9%. C[C@@H]1CN([C@H](C)CO)S(=O)(=O)c2ccc(C#Cc3ccc(F)cc3)cc2O[C@H]1CN(C)C(=O)NC1CCCC1 read activity change (Venus) -53.94%. For C[C@@H]1CN([C@@H](C)CO)C(=O)c2cccc(NC(=O)Nc3ccc(C(F)(F)F)cc3)c2O[C@H]1CN(C)C(=O)Nc1cccc2ccccc12 the result was activity change (Venus) -35.92%. For OC[C@H]1[C@@H](c2ccc(C#CC3CCCC3)cc2)[C@H]2CN(CCC(F)(F)F)CCCCN21 the result was activity change (Venus) -66.94%. For COc1ccc(S(=O)(=O)Nc2ccc3c(c2)C(=O)N([C@H](C)CO)C[C@H](C)[C@H](CN(C)C(=O)NC2CCCCC2)OCCCC[C@H](C)O3)cc1 the result was activity change (Venus) -44.65%.

Result for CO[C@H]1CN(C)C(=O)c2ccc(NC(=O)Nc3cccc(Cl)c3)cc2OC[C@H](C)NC[C@@H]1C was activity change (Venus) -11.56%. For Cc1noc(C)c1NC(=O)Nc1ccc2c(c1)C(=O)N([C@H](C)CO)C[C@@H](C)[C@@H](CN(C)Cc1ccc(C(F)(F)F)cc1)OCCCC[C@H](C)O2 the result was activity change (Venus) -33.57%. O=C(C[C@@H]1CC[C@@H]2[C@H](COC[C@@H](O)CN2S(=O)(=O)c2cccc(F)c2)O1)Nc1ccc(-c2ccccc2)cc1 read activity change (Venus) -52.8%. COc1cccc(NC(=O)N(C)C[C@@H]2OCc3ccccc3-c3c(n(C)c4ccccc34)C(=O)N([C@@H](C)CO)C[C@@H]2C)c1 gave activity change (Venus) -47.54%. CC(C)CC#Cc1ccc2c(c1)O[C@@H](CN(C)S(=O)(=O)c1ccc(F)cc1)[C@H](C)CN([C@H](C)CO)S2(=O)=O read activity change (Venus) -35.97%. Result for C[C@H]1CCCCO[C@H](CN(C)C(=O)Nc2ccc(F)cc2)[C@@H](C)CN([C@@H](C)CO)C(=O)c2cc(NC(=O)c3ccccc3)ccc2O1 was activity change (Venus) -24.8%. With Cc1ccccc1-c1ccc([C@H]2[C@H]3CN(S(=O)(=O)Cc4ccccc4)CCCCN3[C@H]2CO)cc1 the assay gave activity change (Venus) -29.97%.

C[C@@H]1CN([C@@H](C)CO)C(=O)CCCn2nncc2CO[C@@H]1CN(C)Cc1ccccc1C(F)(F)F gave activity change (Venus) -32.81%. Result for COc1ccc(NC(=O)Nc2ccc3c(c2)C(=O)N([C@H](C)CO)C[C@H](C)[C@@H](CN(C)Cc2ccccc2)OCCCC[C@H](C)O3)cc1 was activity change (Venus) -44.3%. Result for Cc1ccc(-c2ccc3c(c2)O[C@@H](CN(C)C(=O)Nc2ccccc2)[C@H](C)CN([C@H](C)CO)S3(=O)=O)cc1 was activity change (Venus) -38.05%. Result for O=C(c1ccccc1F)N1CC[C@@H]2[C@@H](CO)Nc3ccc(-c4ccccc4)cc3[C@@H]21 was activity change (Venus) -40.45%. Result for C[C@H](CO)N1C[C@H](C)[C@H](CN(C)Cc2ccc(C(F)(F)F)cc2)Oc2c(NC(=O)Nc3ccc4c(c3)OCO4)cccc2C1=O was activity change (Venus) -20.61%.

The first 2 entries again:

With CCC(=O)N1CCCCN2[C@H](C1)[C@@H](c1ccc(/C=C/c3ccccc3)cc1)[C@@H]2CO the assay gave activity change (Venus) -36.8%.
With COc1ccc2c3c(n(C)c2c1)[C@H](CO)N(C(=O)C1CCCC1)CC31CCN(CC2CCCC2)CC1 the assay gave activity change (Venus) -29.97%.